In the supplement of paper PMC9015667:
Where a name gives a salt, the structure may show the parent alone. This is one part of the list. Repeats are few or missing, and single values can be far off.

Legend:
Assay in all cases: reduction in cell viability relative to untreated/vehicle; higher = more growth inhibition
Settings in all cases: 200 nM; 72 h
[1] = system: M229P (parental melanoma line)
[2] = system: M229R (matched melanoma line resistant to BRAF inhibitors)
[3] = system: M238P (parental melanoma line)
[4] = system: M238R (matched melanoma line resistant to BRAF inhibitors)
[5] = system: M249P (parental melanoma line)
[6] = system: M249R (matched melanoma line resistant to BRAF inhibitors)
[7] = system: UACC62P (parental melanoma line)
[8] = system: UACC62R (matched melanoma line resistant to BRAF inhibitors)

Measured: reduction in cell viability

O=C(O)CC[C@H]1CC[C@@](c2cc(F)ccc2F)(S(=O)(=O)c2ccc(Cl)cc2)CC1
< 0%: [1] | [2] | [3] | [4] | [5] | [6] | [7] | [8]

CC(C)(Cc1ccc2ccccc2c1)NC[C@@H](O)COc1cccc(Cl)c1C#N
< 0%: [1] | [2] | [3] | [4] | [5] | [6] | [7] | [8]

Cc1nc2n(c(=O)c1CCN1CCC(c3noc4cc(F)ccc34)CC1)CCCC2 [Risperidone???]
2.93%: [7]
< 0%: [1] | [2] | [3] | [4] | [5] | [6] | [8]

CN(C)CCCNC(=O)c1ccc(-c2cc(O)c3ncccc3c2)cc1
< 0%: [1] | [2] | [3] | [4] | [5] | [6] | [7] | [8]

Cn1cc(C2=C(c3ccc(Cl)cc3Cl)C(=O)NC2=O)c2ccccc21
< 0%: [1] | [2] | [3] | [4] | [5] | [6] | [7] | [8]

Nc1ncnc2c1nc(Cl)n2[C@@H]1O[C@H](CO)[C@@H](O)[C@H]1O
< 0%: [1] | [2] | [3] | [4] | [5] | [6] | [7] | [8]

CCNC(=O)c1noc(-c2cc(C(C)C)c(O)cc2O)c1-c1ccc(CN2CCOCC2)cc1
64.3%: [7]
48.6%: [4]
66.2%: [8]
50.2%: [3]
49.9%: [1]
28.2%: [6]
57.2%: [2]
25.3%: [5]

Nc1ncn([C@@H]2O[C@H](CO)[C@@H](O)[C@H]2O)c(=O)n1 [Azacitidine]
27.8%: [6]
12.9%: [3]
< 0%: [1] | [2] | [4] | [5] | [8]
14.4%: [7]

CCC[C@@H]1C[C@@H](C(=O)N[C@@H]([C@H]2O[C@H](SC)[C@H](O)[C@@H](O)[C@H]2O)[C@@H](C)O)N(C)C1 [Lincomycin hydrochloride]
< 0%: [1] | [2] | [3] | [4] | [5] | [6] | [7] | [8]

NNC(=O)c1ccncc1 [Isoniazid]
< 0%: [1] | [2] | [3] | [4] | [5] | [6] | [7] | [8]

NC(=O)[C@@H](CCC(F)(F)F)N(Cc1ccc(-c2ncon2)cc1F)S(=O)(=O)c1ccc(Cl)cc1 [Avagacestat]
15.1%: [8]
< 0%: [1] | [2] | [3] | [4] | [5] | [6] | [7]

COc1c(N2CCNC(C)C2)c(F)cc2c(=O)c(C(=O)O)cn(C3CC3)c12 (centres undefined) [Gatifloxacin]
< 0%: [1] | [2] | [3] | [4] | [5] | [6] | [7] | [8]

CNC(=O)c1nn(C)c2c1C(C)(C)Cc1cnc(Nc3ccc(N4CCN(C)CC4)cc3)nc1-2 [Milciclib]
29.8%: [3]
11.7%: [2]
24.8%: [6]
10.6%: [1]
4.6%: [5]
37.4%: [8]
24.9%: [7]
14.6%: [4]

CCc1nc(-c2cccc(C)c2)c(-c2ccnc(NC(=O)c3ccccc3)c2)s1
< 0%: [1] | [2] | [3] | [4] | [5] | [6] | [7] | [8]

CN1C2CCCC1CC(NC(=O)c1nn(C)c3ccccc13)C2 (centres undefined) [Granisetron hydrochloride]
4.37%: [7]
< 0%: [1] | [2] | [3] | [4] | [5] | [6] | [8]

CN1CCN(CCOc2cc(OC3CCOCC3)c3c(Nc4c(Cl)ccc5c4OCO5)ncnc3c2)CC1 [Saracatinib]
1.23%: [8]
< 0%: [1] | [3] | [4] | [5] | [6] | [7]
6.72%: [2]

CNC(=O)c1cc(COc2nnc(Nc3ccc(Cl)cc3)c3ccoc23)ccn1 [Telatinib]
< 0%: [1] | [2] | [3] | [4] | [5] | [6] | [7] | [8]

O=c1oc2cc(O)ccc2s1 [Tioxolone]
< 0%: [1] | [2] | [3] | [4] | [5] | [6] | [7] | [8]

CC(=O)O[C@]1(C(C)=O)CC[C@H]2[C@@H]3C=C(C)C4=CC(=O)CC[C@]4(C)[C@H]3CC[C@@]21C [Megestrol acetate]
< 0%: [1] | [2] | [3] | [4] | [5] | [7] | [8]
3.73%: [6]

N=C1N[C@H]2[C@H](CS[C@H]2CCCCC(=O)O)N1 [2-Iminobiotin]
< 0%: [1] | [2] | [3] | [4] | [5] | [6] | [8]
3.37%: [7]

CC(=O)Oc1cc2c(s1)CCN(C(C(=O)C1CC1)c1ccccc1F)C2 (centres undefined) [Prasugrel hydrochloride]
< 0%: [1] | [2] | [3] | [4] | [5] | [6] | [7] | [8]

C[C@H]1[C@H](C)CC[C@]2(C(=O)O)CC[C@]3(C)C(=CC[C@@H]4[C@@]5(C)C[C@@H](O)[C@H](O)[C@@](C)(CO)[C@@H]5CC[C@]43C)[C@H]12 [Asiatic acid]
< 0%: [1] | [2] | [3] | [4] | [5] | [6] | [7] | [8]

CCCCS(=N)(=O)CCC(N)C(=O)O [L-Buthionine-sulfoximine]
< 0%: [1] | [2] | [3] | [4] | [5] | [6] | [7] | [8]

O=C(NOCC(O)CO)c1cc(Br)c(F)c(F)c1Nc1ccc(I)cc1F (centres undefined)
52.5%: [5]
16.3%: [8]
20.3%: [1]
29.7%: [3]
< 0%: [2] | [4]
46.4%: [7]
8.73%: [6]

c1coc(CNc2ncnc3[nH]cnc23)c1 [Kinetin]
< 0%: [1] | [2] | [3] | [4] | [5] | [6] | [7] | [8]

C[C@H](CCC(=O)O)[C@H]1CC[C@H]2[C@@H]3[C@H](O)C[C@@H]4C[C@H](O)CC[C@]4(C)[C@H]3CC[C@]12C [Chenodeoxycholic acid]
< 0%: [1] | [3] | [4] | [5] | [6] | [7] | [8]
2.43%: [2]

Fetched by structure from the entries so far (3):
NC(=O)[C@@H](CCC(F)(F)F)N(Cc1ccc(-c2ncon2)cc1F)S(=O)(=O)c1ccc(Cl)cc1 [Avagacestat]
15.1%: [8]
< 0%: [1] | [2] | [3] | [4] | [5] | [6] | [7]

C[C@H]1[C@H](C)CC[C@]2(C(=O)O)CC[C@]3(C)C(=CC[C@@H]4[C@@]5(C)C[C@@H](O)[C@H](O)[C@@](C)(CO)[C@@H]5CC[C@]43C)[C@H]12 [Asiatic acid]
< 0%: [1] | [2] | [3] | [4] | [5] | [6] | [7] | [8]

c1coc(CNc2ncnc3[nH]cnc23)c1 [Kinetin]
< 0%: [1] | [2] | [3] | [4] | [5] | [6] | [7] | [8]

(cont.)

CCCCCCOC(=O)NC(=N)c1ccc(NCc2nc3cc(C(=O)N(CCC(=O)OCC)c4ccccn4)ccc3n2C)cc1
< 0%: [1] | [2] | [3] | [4] | [5] | [6] | [7] | [8]

CC(=O)O[C@H]1C(=O)[C@@]2(C)[C@H]([C@H](OC(=O)c3ccccc3)[C@]3(O)C[C@H](OC(=O)[C@H](O)[C@@H](NC(=O)c4ccccc4)c4ccccc4)C(C)=C1C3(C)C)[C@]1(OC(C)=O)CO[C@@H]1C[C@@H]2O [Paclitaxel]
88.9%: [3]
57.4%: [2]
38.5%: [1]
54.4%: [6]
91.1%: [8]
57.9%: [5]
69.8%: [7]
72.6%: [4]

CCNC(=O)Nc1ccc(-c2nc3c(c(N4CCOC[C@@H]4C)n2)CCN(C2COC2)C3)cc1
21.1%: [3]
28.2%: [6]
21%: [7]
7.22%: [1]
22.9%: [8]
19.4%: [4]
11.7%: [5]
36.6%: [2]

CN(C)c1ccc2cc(C(=O)N[C@@H](CCCN=C(N)CCl)C(=O)NCc3ccccc3)ccc2c1
2.15%: [7]
< 0%: [1] | [2] | [3] | [4] | [5] | [6] | [8]

Oc1c(Cl)cc(Cl)c2cccnc12 [Chloroxine]
< 0%: [1] | [2] | [3] | [4] | [5] | [6] | [7] | [8]

Clc1ccc(Nc2nnc(Cc3ccncc3)c3ccccc23)cc1 [Vatalanib dihydrochloride]
< 0%: [1] | [2] | [3] | [4] | [5] | [6] | [7] | [8]

NC(=O)c1cnccn1 [Pyrazinamide]
< 0%: [1] | [3] | [4] | [5] | [6] | [7] | [8]
0.63%: [2]

Nc1nc(F)nc2c1ncn2[C@@H]1O[C@H](CO)[C@@H](O)[C@H]1O [2-Fluoroadenosine]
69.4%: [3]
34.2%: [6]
81.9%: [8]
20.9%: [5]
68.5%: [2]
65.9%: [4]
72.7%: [7]
22.6%: [1]

CCC(C)(Oc1ccc(C2(c3ccc(OC(C)(CC)C(=O)O)cc3)CCCCC2)cc1)C(=O)O (centres undefined) [Clinofibrate]
< 0%: [1] | [2] | [3] | [4] | [5] | [6] | [7] | [8]

C[Se]CC[C@H](N)C(=O)O [Selenomethionine]
< 0%: [1] | [2] | [3] | [4] | [5] | [6] | [7] | [8]

COc1c(C)c2c(c(O)c1C/C=C(\C)CCC(=O)O)C(=O)OC2 [Mycophenolic acid]
< 0%: [1] | [2] | [3] | [4] | [5] | [6] | [7] | [8]

COc1cc2c(cc1OC)CN(CCc1ccc(NC(=O)c3cccc4c(=O)c5cccc(OC)c5[nH]c34)cc1)CC2 [Elacridar]
< 0%: [1] | [2] | [3] | [4] | [5] | [6] | [7] | [8]

CCOC(=O)c1c(CSc2ccccc2)n(C)c2cc(Br)c(O)c(CN(C)C)c12 [Arbidol]
< 0%: [1] | [2] | [3] | [4] | [5] | [6] | [7] | [8]

C[C@H](NC(=O)[C@@H](O)c1cc(F)cc(F)c1)C(=O)N[C@@H]1C(=O)N(C)c2ccccc2-c2ccccc21
< 0%: [1] | [2] | [3] | [4] | [5] | [6] | [7] | [8]

O=c1[nH]c(=O)n([C@H]2C[C@H](O)[C@@H](CO)O2)cc1/C=C/Br [Brivudine]
< 0%: [1] | [2] | [3] | [4] | [5] | [6] | [7] | [8]

CC(C)Oc1ccc2c(=O)c(-c3ccccc3)coc2c1 [Ipriflavone]
6.86%: [7]
< 0%: [1] | [2] | [3] | [4] | [5] | [6] | [8]

Cc1ccc(NC(=O)c2ccc(CN3CCN(C)CC3)cc2)cc1Nc1nccc(-c2cccnc2)n1 [Imatinib]
< 0%: [1] | [2] | [3] | [4] | [5] | [6] | [8]
0.37%: [7]
